# Test results from patent publication US20210338728A1, “METHODS AND COMPOSITIONS FOR THE EXPANSION AND USE OF ALLOGENEIC GAMMA/DELTA-T CELLS” (Phosphogam, Inc., priority 2018, published 2021).
# “Also recorded” adds a separate entry of the source. At least one compound was matched to its structure with a doubt left.
# Tests used:
# human tumor cell lines = assay: Sensitization of tumor cells to killing by γδ-T cells by 24 h zoledronic acid pre-treatment (FACS or LDH-release); type: cell-based; conditions: ZOL 10 μM or 50 μM for 24 h before assay, 4 h co-culture, various E:T ratios, FIG. 4 and 5
# MDA-MB-231 tumor cells = assay: Sensitization of MDA-MB-231 tumor cells to killing by γδ-T cells by 24 h zoledronic acid pre-treatment; conditions: ZOL pre-treatment for 24 hours, indicated E:T ratios, FIG. 4
smiles,measurement,setting,value
O=P(O)(O)C(O)(Cn1ccnc1)P(=O)(O)O [zoledronic acid],sensitivity of tumor cells to killing by γδ-T cells (tumor cell lysis),human tumor cell lines,can render relatively resistant tumor cells more sensitive to killing; also recorded: renders various tumor cells more sensitive to killing by γδ-T cells
same,sensitivity of MDA-MB-231 tumor cells to killing by ex vivo expanded γδ-T cells (tumor cell lysis),MDA-MB-231 tumor cells,can render relatively resistant MDA-MB-231 tumor cells more sensitive to killing
